Reference: the supplement of paper PMC6411743
± gives the standard deviation of the averaged measurements. This is a selection; strong and weak results do not stand in their true shares.

Protein sequences, listed by entry. Tags and fused reporters are not part of them. Lines headed by an entry give the natural chain unless they say otherwise; changes in a name come on top.
UniProt Q9BY44: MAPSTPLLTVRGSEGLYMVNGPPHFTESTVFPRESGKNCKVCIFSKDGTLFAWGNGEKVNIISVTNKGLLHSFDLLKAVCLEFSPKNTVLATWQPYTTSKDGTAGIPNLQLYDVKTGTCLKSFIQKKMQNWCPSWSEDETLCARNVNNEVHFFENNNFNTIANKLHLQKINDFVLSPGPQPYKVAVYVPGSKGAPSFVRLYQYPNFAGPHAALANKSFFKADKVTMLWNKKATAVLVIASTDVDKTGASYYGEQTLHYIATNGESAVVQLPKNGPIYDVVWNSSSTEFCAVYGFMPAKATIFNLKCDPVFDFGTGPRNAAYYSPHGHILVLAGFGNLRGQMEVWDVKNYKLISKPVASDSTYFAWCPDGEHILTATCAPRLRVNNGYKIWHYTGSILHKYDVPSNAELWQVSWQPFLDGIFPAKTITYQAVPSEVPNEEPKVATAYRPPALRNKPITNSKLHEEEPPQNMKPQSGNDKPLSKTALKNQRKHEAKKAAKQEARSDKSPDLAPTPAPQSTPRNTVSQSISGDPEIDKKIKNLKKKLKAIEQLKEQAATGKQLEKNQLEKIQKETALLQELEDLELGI
UniProt Q96RL1: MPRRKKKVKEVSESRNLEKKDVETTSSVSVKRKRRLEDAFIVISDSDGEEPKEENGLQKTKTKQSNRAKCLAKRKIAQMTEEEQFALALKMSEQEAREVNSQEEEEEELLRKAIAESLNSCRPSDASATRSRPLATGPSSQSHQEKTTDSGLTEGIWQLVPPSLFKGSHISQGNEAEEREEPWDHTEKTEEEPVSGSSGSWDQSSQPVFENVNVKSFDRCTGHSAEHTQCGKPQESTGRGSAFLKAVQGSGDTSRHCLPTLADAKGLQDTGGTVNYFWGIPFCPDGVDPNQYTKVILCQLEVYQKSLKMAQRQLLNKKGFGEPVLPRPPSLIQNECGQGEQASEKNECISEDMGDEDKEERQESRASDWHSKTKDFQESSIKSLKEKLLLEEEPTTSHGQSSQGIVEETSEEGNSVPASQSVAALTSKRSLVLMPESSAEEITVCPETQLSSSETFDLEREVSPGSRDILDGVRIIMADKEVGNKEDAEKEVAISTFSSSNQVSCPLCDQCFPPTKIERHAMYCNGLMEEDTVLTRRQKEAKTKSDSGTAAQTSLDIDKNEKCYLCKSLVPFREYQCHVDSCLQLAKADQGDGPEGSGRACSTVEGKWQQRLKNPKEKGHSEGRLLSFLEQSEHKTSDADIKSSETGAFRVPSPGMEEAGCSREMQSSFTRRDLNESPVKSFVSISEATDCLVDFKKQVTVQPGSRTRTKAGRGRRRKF
UniProt Q9BYT8, whole entry, looked up: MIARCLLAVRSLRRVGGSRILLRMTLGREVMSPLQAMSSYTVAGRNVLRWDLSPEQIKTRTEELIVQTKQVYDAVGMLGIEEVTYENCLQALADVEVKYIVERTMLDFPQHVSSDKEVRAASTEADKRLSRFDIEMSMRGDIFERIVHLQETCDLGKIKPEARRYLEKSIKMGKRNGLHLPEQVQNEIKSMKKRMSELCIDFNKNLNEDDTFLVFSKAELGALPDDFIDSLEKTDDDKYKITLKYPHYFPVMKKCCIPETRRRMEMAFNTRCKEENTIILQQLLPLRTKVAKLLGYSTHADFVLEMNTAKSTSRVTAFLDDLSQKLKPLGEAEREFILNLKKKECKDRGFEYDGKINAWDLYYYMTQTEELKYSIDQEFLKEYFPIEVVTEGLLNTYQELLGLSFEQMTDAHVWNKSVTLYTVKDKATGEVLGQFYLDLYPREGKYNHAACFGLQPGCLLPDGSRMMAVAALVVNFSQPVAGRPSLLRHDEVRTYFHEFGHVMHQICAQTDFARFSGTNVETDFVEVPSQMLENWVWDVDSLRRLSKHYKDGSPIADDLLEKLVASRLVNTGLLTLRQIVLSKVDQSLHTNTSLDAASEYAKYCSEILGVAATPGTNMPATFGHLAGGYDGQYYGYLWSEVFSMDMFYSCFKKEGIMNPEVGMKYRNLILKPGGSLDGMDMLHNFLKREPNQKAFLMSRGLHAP
UniProt Q99714: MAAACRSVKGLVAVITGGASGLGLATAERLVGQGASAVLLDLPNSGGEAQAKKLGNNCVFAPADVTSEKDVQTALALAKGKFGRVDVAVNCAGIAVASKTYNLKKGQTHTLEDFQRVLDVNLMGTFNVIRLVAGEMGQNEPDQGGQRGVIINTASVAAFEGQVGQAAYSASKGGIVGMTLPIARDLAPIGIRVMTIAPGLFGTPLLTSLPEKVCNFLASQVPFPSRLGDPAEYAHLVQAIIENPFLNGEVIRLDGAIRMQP
UniProt Q9BU76: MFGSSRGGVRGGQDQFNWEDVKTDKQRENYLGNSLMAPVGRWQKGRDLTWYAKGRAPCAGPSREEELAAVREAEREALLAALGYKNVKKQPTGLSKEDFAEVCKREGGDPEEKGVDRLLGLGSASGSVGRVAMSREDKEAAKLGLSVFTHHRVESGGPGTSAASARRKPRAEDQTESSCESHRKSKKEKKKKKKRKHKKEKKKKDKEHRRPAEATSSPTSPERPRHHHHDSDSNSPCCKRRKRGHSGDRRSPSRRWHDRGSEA
UniProt Q9BRD0: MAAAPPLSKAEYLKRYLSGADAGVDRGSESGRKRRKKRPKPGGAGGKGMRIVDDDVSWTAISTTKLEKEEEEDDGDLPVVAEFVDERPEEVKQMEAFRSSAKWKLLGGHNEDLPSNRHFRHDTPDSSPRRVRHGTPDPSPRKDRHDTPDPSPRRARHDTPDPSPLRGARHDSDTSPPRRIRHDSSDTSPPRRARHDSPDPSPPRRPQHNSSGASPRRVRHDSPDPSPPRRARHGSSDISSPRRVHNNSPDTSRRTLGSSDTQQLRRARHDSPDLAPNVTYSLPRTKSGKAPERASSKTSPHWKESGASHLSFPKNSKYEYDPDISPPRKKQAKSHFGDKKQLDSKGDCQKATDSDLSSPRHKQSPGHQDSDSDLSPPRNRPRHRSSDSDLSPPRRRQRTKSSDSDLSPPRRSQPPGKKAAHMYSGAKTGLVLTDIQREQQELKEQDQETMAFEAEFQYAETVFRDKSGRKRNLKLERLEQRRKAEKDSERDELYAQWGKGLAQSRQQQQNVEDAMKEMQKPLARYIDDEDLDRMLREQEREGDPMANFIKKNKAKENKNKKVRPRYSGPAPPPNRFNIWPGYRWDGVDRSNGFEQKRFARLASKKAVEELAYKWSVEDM
UniProt Q96TA1: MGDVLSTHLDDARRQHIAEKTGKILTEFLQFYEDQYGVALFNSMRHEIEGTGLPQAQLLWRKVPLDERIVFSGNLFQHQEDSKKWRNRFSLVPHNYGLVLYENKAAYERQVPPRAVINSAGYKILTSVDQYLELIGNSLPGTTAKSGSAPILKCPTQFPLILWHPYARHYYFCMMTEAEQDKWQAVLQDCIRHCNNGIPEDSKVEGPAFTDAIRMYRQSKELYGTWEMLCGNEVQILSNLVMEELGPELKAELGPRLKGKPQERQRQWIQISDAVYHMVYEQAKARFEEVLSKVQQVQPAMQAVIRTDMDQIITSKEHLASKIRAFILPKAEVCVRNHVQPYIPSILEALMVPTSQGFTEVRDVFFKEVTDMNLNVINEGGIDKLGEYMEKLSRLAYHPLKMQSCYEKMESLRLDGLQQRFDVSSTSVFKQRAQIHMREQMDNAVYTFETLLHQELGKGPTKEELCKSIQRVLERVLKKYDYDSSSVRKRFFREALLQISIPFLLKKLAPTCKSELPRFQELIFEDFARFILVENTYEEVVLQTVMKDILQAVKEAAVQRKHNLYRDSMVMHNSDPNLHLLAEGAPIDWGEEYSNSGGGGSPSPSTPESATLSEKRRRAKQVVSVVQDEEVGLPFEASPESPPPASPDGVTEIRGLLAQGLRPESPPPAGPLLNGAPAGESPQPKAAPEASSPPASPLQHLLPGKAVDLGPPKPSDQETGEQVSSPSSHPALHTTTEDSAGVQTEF
UniProt Q9BTK6, whole entry: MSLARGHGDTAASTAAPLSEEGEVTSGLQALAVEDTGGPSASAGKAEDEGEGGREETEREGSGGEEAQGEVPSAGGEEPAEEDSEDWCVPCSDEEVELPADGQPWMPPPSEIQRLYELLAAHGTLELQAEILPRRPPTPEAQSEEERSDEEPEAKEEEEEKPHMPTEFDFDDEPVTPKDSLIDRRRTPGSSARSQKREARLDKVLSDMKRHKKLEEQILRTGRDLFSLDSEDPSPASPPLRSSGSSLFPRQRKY
UniProt Q9BYJ9: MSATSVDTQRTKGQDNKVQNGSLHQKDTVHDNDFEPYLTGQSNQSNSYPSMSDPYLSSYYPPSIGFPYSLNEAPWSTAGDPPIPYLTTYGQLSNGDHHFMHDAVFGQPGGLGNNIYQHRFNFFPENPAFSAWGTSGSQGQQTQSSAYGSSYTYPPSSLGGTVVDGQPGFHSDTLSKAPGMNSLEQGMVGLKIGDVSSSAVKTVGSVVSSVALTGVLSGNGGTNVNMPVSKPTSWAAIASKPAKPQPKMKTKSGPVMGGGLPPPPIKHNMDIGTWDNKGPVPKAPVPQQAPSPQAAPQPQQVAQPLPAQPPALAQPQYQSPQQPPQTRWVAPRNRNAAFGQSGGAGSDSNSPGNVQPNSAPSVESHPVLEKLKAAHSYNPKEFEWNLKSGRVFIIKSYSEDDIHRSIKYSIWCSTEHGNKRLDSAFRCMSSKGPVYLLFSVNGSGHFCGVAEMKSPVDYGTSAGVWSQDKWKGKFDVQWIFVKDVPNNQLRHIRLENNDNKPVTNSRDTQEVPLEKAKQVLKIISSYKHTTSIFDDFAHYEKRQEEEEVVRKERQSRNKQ
UniProt Q99661: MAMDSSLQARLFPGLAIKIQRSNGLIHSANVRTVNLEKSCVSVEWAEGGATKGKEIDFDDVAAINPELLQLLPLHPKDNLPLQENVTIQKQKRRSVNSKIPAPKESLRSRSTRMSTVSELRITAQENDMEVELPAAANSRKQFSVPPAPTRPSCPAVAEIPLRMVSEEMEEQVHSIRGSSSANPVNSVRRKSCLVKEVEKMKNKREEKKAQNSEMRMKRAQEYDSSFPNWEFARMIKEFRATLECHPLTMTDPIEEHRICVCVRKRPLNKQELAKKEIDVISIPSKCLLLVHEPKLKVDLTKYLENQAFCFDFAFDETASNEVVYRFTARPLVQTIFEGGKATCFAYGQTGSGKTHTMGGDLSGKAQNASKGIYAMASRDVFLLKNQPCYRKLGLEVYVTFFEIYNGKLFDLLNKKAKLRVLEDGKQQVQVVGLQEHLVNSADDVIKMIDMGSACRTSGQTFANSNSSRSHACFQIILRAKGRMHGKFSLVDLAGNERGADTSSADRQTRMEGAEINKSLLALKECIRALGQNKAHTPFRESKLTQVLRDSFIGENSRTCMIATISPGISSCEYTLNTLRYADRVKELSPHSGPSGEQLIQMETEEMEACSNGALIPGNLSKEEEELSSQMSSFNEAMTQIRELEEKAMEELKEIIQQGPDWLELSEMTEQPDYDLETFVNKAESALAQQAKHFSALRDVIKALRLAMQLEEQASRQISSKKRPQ
UniProt Q9BVP2: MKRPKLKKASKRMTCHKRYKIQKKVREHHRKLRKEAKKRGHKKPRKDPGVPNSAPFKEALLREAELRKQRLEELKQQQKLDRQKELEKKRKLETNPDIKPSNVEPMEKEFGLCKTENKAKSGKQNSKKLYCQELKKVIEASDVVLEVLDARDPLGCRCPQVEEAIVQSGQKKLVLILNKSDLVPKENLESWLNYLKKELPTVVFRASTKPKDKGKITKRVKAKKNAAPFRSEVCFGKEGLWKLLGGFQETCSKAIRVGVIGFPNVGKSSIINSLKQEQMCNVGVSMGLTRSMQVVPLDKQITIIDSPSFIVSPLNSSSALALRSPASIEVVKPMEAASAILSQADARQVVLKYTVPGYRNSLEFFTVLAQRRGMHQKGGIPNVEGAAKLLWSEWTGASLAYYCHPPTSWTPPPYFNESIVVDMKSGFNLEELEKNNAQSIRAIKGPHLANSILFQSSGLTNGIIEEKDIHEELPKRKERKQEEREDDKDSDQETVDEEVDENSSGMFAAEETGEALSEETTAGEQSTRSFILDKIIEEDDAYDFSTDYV
UniProt Q99829: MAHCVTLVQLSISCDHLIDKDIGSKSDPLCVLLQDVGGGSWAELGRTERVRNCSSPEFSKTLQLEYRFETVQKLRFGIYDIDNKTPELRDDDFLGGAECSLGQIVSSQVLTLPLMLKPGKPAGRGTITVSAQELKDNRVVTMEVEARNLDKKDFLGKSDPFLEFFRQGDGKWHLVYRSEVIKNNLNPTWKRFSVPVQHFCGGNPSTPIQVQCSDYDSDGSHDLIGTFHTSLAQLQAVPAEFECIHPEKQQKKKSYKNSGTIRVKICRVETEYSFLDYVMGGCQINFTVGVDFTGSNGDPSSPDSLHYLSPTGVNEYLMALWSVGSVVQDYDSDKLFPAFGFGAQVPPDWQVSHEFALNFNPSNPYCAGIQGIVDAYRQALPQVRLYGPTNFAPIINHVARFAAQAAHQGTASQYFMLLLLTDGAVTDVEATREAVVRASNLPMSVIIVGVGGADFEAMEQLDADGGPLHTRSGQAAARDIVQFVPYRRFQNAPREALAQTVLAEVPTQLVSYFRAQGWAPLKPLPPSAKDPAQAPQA

Compound: Nc1ncnc2c1ncn2[C@@H]1O[C@H](COP(=O)(O)OP(=O)(O)NP(=O)(O)O)[C@@H](O)[C@H]1O [adenylyl imidodiphosphate]
Experiment: NP40-soluble protein abundance relative to vehicle (solubility fold change) (ratio); higher = more soluble protein in presence of AMP-PNP
Conditions: concentration: 10mM
In short: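 In three independent experiments, Jurkat crude lysate made by Dounce homogenisation was treated for 10 min at room temperature and then 3 min at 37 °C with eight concentrations ranging from 0.1 to 10 mM. It was then solubilised with 0.8% NP40 plus benzonase for 60 min at 4 °C and ultracentrifuged. The supernatant was TMT-labelled for LC-MS/MS, and each value is the fold change against the detergent-processed vehicle for the same replicate, using vsn-normalised intensities.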

Q: How did the NP40-soluble protein abundance turn out when GINS3 (UniProt Q9BRX5) was run?
A: The NP40-soluble protein abundance was 0.935 ± 0.066.

Q: Which NP40-soluble protein abundance does the source give for SPATA5L1 (UniProt Q9BVQ7) here?
A: Its NP40-soluble protein abundance is 1.16 ± 0.13.

Q: With PIK3R4 (UniProt Q99570) as the target, how does the NP40-soluble protein abundance read?
A: The NP40-soluble protein abundance was 0.879 ± 0.038.

Q: How did the NP40-soluble protein abundance turn out when UniProt Q9BY44 and related entries was run?
A: The NP40-soluble protein abundance was 1.02 ± 0.054.

Q: Which NP40-soluble protein abundance does the source give for UIMC1 (UniProt Q96RL1) here?
A: The NP40-soluble protein abundance was 1.1 ± 0.043.

Q: For UniProt Q99728 and related entries, which NP40-soluble protein abundance is on record?
A: Its NP40-soluble protein abundance is 1.1 ± 0.052.

Q: How did the NP40-soluble protein abundance turn out when UniProt Q99549 and related entries was run?
A: Its NP40-soluble protein abundance is 1.12 ± 0.026.

Q: How did the NP40-soluble protein abundance turn out when NLN (UniProt Q9BYT8) was run?
A: Its NP40-soluble protein abundance is 0.945 ± 0.025.

Q: For BACH2 (UniProt Q9BYV9), which NP40-soluble protein abundance is on record?
A: Its NP40-soluble protein abundance is 1.02 ± 0.05.

Q: Which NP40-soluble protein abundance does the source give for SPAG5 (UniProt Q96R06) here?
A: The NP40-soluble protein abundance was 0.933 ± 0.049.

Q: Which NP40-soluble protein abundance does the source give for UniProt Q9BSC4 and related entries here?
A: The NP40-soluble protein abundance was 1.08 ± 0.055.

Q: Which NP40-soluble protein abundance does the source give for UniProt Q9BUH6 here?
A: The NP40-soluble protein abundance was 1.1 ± 0.05.

Q: How did the NP40-soluble protein abundance turn out when POP1 (UniProt Q99575) was run?
A: Its NP40-soluble protein abundance is 0.954 ± 0.081.

Q: For GNB1L (UniProt Q9BYB4), which NP40-soluble protein abundance is on record?
A: Its NP40-soluble protein abundance is 0.934 ± 0.03.

Q: With HIRIP3 (UniProt Q9BW71) as the target, how does the NP40-soluble protein abundance read?
A: Its NP40-soluble protein abundance is 1.23 ± 0.023.

Q: For NIPSNAP1 (UniProt Q9BPW8), which NP40-soluble protein abundance is on record?
A: Its NP40-soluble protein abundance is 0.948 ± 0.021.

Q: With TSG101 (UniProt Q99816) as the target, how does the NP40-soluble protein abundance read?
A: The NP40-soluble protein abundance was 0.928 ± 0.048.

Q: How did the NP40-soluble protein abundance turn out when HSD17B10 (UniProt Q99714) was run?
A: Its NP40-soluble protein abundance is 1.1 ± 0.082.

Q: With PARK7 (UniProt Q99497) as the target, how does the NP40-soluble protein abundance read?
A: Its NP40-soluble protein abundance is 0.934 ± 0.08.

Q: How did the NP40-soluble protein abundance turn out when UniProt Q9BU76 and related entries was run?
A: Its NP40-soluble protein abundance is 0.989 ± 0.038.

Q: For UniProt Q9BS26, which NP40-soluble protein abundance is on record?
A: Its NP40-soluble protein abundance is 0.999 ± 0.02.

Q: Which NP40-soluble protein abundance does the source give for BUD13 (UniProt Q9BRD0) here?
A: Its NP40-soluble protein abundance is 1.08 ± 0.02.

Q: With UniProt Q9BSJ8 and related entries as the target, how does the NP40-soluble protein abundance read?
A: The NP40-soluble protein abundance was 0.912 ± 0.015.

Q: How did the NP40-soluble protein abundance turn out when UniProt Q96TA1 and related entries was run?
A: The NP40-soluble protein abundance was 1.01 ± 0.11.

Q: With UniProt Q9BU23 and related entries as the target, how does the NP40-soluble protein abundance read?
A: Its NP40-soluble protein abundance is 0.94 ± 0.051.

Q: UniProt Q9BTK6 was tested. Which NP40-soluble protein abundance did it give?
A: The NP40-soluble protein abundance was 0.946 ± 0.019.

Q: UniProt Q96QU8 and related entries was tested. Which NP40-soluble protein abundance did it give?
A: The NP40-soluble protein abundance was 1.03 ± 0.013.

Q: How did the NP40-soluble protein abundance turn out when YTHDF1 (UniProt Q9BYJ9) was run?
A: The NP40-soluble protein abundance was 1.04 ± 0.063.

Q: For UniProt Q9BRP4 and related entries, which NP40-soluble protein abundance is on record?
A: Its NP40-soluble protein abundance is 0.909 ± 0.036.

Q: For UniProt Q99653, which NP40-soluble protein abundance is on record?
A: Its NP40-soluble protein abundance is 0.969 ± 0.021.

Q: With KIF2C (UniProt Q99661) as the target, how does the NP40-soluble protein abundance read?
A: Its NP40-soluble protein abundance is 1.03 ± 0.03.

Q: For UniProt Q9BVP2 and related entries, which NP40-soluble protein abundance is on record?
A: Its NP40-soluble protein abundance is 1.23 ± 0.13.

Q: For ARPC5L (UniProt Q9BPX5), which NP40-soluble protein abundance is on record?
A: The NP40-soluble protein abundance was 1.02 ± 0.047.

Q: For UniProt Q9BV86, which NP40-soluble protein abundance is on record?
A: The NP40-soluble protein abundance was 0.954 ± 0.051.

Q: UniProt Q9BYV8 was tested. Which NP40-soluble protein abundance did it give?
A: Its NP40-soluble protein abundance is 0.981 ± 0.012.

Q: With MECR (UniProt Q9BV79) as the target, how does the NP40-soluble protein abundance read?
A: Its NP40-soluble protein abundance is 1.05 ± 0.03.

Q: How did the NP40-soluble protein abundance turn out when UniProt Q99829 and related entries was run?
A: Its NP40-soluble protein abundance is 1.02 ± 0.038.

Q: Which NP40-soluble protein abundance does the source give for PSMB7 (UniProt Q99436) here?
A: The NP40-soluble protein abundance was 0.9 ± 0.13.
